Assay results published in article PMC5767604.
These are yes or no findings as the source states them, for the method shown. In cells and extracts the contact can be indirect. Here binding means that the protein was enriched with, or labelled near, the bait; the list need not be complete. Sequences can lack the tags named with a protein.

The chains behind the UniProt entries cited, without tags or fusion partners. Where a name states a change or a piece, a line headed by the entry shows the natural chain unless it says otherwise. Residues count along the entry.
UniProt Q9SA16: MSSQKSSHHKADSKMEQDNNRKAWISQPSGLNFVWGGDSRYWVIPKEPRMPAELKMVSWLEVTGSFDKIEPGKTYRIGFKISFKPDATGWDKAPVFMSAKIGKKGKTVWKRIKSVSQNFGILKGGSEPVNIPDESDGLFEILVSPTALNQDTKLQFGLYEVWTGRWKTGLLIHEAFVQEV
UniProt P37702, residues 20-541: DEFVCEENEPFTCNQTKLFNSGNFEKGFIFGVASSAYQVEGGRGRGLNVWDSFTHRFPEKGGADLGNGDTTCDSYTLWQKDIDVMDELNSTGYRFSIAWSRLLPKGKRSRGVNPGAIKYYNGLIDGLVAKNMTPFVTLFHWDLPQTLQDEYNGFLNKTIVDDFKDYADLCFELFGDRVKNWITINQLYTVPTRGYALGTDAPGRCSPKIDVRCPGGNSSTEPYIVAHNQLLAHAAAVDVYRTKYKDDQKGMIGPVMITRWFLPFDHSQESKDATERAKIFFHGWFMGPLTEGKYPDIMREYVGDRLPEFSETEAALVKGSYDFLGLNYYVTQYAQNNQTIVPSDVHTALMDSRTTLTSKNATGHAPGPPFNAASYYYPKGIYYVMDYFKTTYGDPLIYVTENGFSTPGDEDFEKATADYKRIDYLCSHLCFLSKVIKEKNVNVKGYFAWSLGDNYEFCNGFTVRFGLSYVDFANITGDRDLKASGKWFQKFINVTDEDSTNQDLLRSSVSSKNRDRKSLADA

Molecular target: C-terminally His6-tagged AN4 (ArathNictaba4) (A. thaliana) (UniProt Q9SA16)
Assay: affinity purification with mass spectrometry; AN4-HIS from the soluble fraction of IPTG-induced E. coli held on Ni-agarose beads (bait), washed with PB, 1 M NaCl, 50 and 75 mM imidazole, pH 8.0; incubated 30-35 min at 4°C with extract of 16-day-old Arabidopsis plants, untreated or treated with 150 mM NaCl for 5 h (prey; extraction buffer 1 x PB, 1 M NaCl, 25 mM imidazole, 10% glycerol, 0.1% Tween-20, 1% beta-mercaptoethanol, pH 8.0); compared with beads loaded from a non-induced E. coli culture; on-bead trypsin, Q Exactive HF, MaxQuant and Perseus; only the target purified

Row | binding | Molecule
1 | binds | TGG1 (myrosinase 1, thioglucoside glucohydrolase) (from UniProt P37702 20-541) (enzyme)
2 | binds | protein plastid transcriptionally active 16 (protein, UniProt Q9STF2 20-510) FNRRKPRLTVWAKQTAFQLGKTKGDDDSEGKQKGKNPFQFDFGKLPDMKSLIPVVTNPSTGLVFGNNRKKDPGTIFVAGATGQAGIRIAQTLLQRGFSVRAGVPDLGAAQDLARVAATYKILSNDEVKRLNAVQSPFQDAESIAKAIGNATKVVVTVGATENGPDAQVSTSDALLVVQAAELAGVSHVAIVYDGTISGSTYNVLDGITSFFGNLFAKSQPLTISDLIEKVAQTDVAYTLIKTSLTEDFSPEKAYNVVVSAEGSNSGSGSSSSEAYKVPKLKIASLVADIFANTAVAENKVVEVSTDPSAPSRPVDELFSVIPEDGRRKVYADAIARERAEEEAKVAADKAREAAEAAKEFEKQMQKLSEKEAEAASLAEDAQQKADAVGVTVDGLFNKAKDISSGLSWNKLGSQFATAIQNASETPKVQVATVRGQAKARNLPPKKAVVKQRPSSPFASKPKEERPKKPEKEVRKVFGGLFKQETIYIDDD
3 | binds | BGLU23 (PYK10, beta-O-glucosidase) (enzyme, UniProt Q9SR37 25-524) DGPVCPPSNKLSRASFPEGFLFGTATAAYQVEGAINETCRGPALWDIYCRRYPERCNNDNGDVAVDFFHRYKEDIQLMKNLNTDAFRMSIAWPRIFPHGRKEKGVSQAGVQFYHDLIDELIKNGITPFVTVFHWDTPQDLEDEYGGFLSERIVKDFREYADFVFQEYGGKVKHWITFNEPWVFSHAGYDVGKKAPGRCSSYVNAKCQDGRSGYEAYLVTHNLLISHAEAVEAYRKCEKCKGGKIGIAHSPAWFEAHDLADSQDGASIDRALDFILGWHLDTTTFGDYPQIMKDIVGHRLPKFTTEQKAKLKASTDFVGLNYYTSVFSNHLEKPDPSKPRWMQDSLITWESKNAQNYAIGSKPLTAALNVYSRGFRSLLKYIKDKYANPEIMIMENGYGEELGASDSVAVGTADHNRKYYLQRHLLSMQEAVCIDKVNVTGYFVWSLLDNFEWQDGYKNRFGLYYVDFKNNLTRYEKESGKYYKDFLSQGVRPSALKKDEL
4 | binds | GDSL esterase/lipase ESM1 (protein, UniProt Q9LJG3 29-392) GEGVPNVALFTFGDSYYDAGNKVFLSQRKDLPQTYWPYGKSRDYPNGKFSDGHIVPDFIADFISIPNGVLPPVLKPGVDISRGVSFAVADASILGAPVESMTLNQQVVKFKNMKSNWNDSYIEKSLFMIYIGTEDYLNFTKANPNADASAQQAFVTNVINRLKNDIKLLYSLGASKFVVQLLAPLGCLPIVRQEYKTGNECYELLNDLAKQHNGKIGPMLNEFAKISTSPYGFQFTVFDFYNAVLRRIATGRSLNYRFFVTNTSCCGVGTHNAYGCGKGNVHSKLCEYQRSYFFFDGRHNTEKAQEEMAHLLYGADPDVVQPMTVRELIVYPTGETMREYWEPNNLAIRRRPSRDFYLGLAAYY
